Structures are written as SMILES. This is one part of the list. Single values are uncertain, as repeats are few or missing.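 Cells were imaged in 1,536-well plates, and nuclei stained with an antibody against cleaved PARP were counted against all DNA-stained nuclei to give the apoptosis fraction. Screening doses were chosen to leave most cells alive, and resting and induced cleaved-PARP levels differ strongly between cell lines.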

The test system of the experiment is G361. The experiment can be described thus: cleaved PARP positive nuclei fraction relative to DMSO control; melanoma cells; higher = more apoptosis. The conditions noted are these: library dose: low library concentration; 72 h.
Consider `Nc1ncn([C@H]2C[C@H](O)[C@@H](CO)O2)c(=O)n1` [decitabine] + Cc1cc(N2CCOCC2)cc2[nH]c(-c3c(NC[C@@H](O)c4cccc(Cl)c4)cc[nH]c3=O)nc12 [BMS536924] (first compound 0.1 µM, partner dose 0.2 µM), for which the “cleaved PARP positive nuclei fraction” value was 34.1%.

Consider `Cn1c(=O)n(-c2ccc(C(C)(C)C#N)cc2)c2c3cc(-c4cnc5ccccc5c4)ccc3ncc21` + NCC(=O)Nc1ccc(-n2nc(C(F)(F)F)cc2-c2ccc3c(ccc4ccccc43)c2)cc1 [OSU03012] (first compound 0.004 µM, partner dose 1 µM), for which the “cleaved PARP positive nuclei fraction” value came to 60.8%.

On to `CS(=O)(=O)CCNCc1ccc(-c2ccc3ncnc(Nc4ccc(OCc5cccc(F)c5)c(Cl)c4)c3c2)o1` [lapatinib] + O=C(Nc1cccc(Cl)c1)Nc1ncc(CCNc2ncnc3ccsc23)s1 [SNS314] (first compound 0.8 µM, partner dose 0.0008 µM), for which the “cleaved PARP positive nuclei fraction” value was 163%. For the molecule `CN1CCN(c2ccc3nc(-c4c(N)c5c(F)cccc5[nH]c4=O)[nH]c3c2)CC1` [Dovitinib] + CN(C)S(=O)(=O)c1ccc2c(c1)/C(=C/c1cc3c([nH]1)CCCC3)C(=O)N2 [SU6656] (first compound 0.1 µM, partner dose 0.4 µM), the “cleaved PARP positive nuclei fraction” value is 203%. Take `C[C@@H](Oc1cc(-c2cnn(C3CCNCC3)c2)cnc1N)c1c(Cl)ccc(F)c1Cl` [Crizotinib] + Cn1cncc1[C@@](N)(c1ccc(Cl)cc1)c1ccc2c(c1)c(-c1cccc(Cl)c1)cc(=O)n2C [tipifarnib] (first compound 0.2 µM, partner dose 0.01 µM): the “cleaved PARP positive nuclei fraction” value amounted to 124%.
